From PubChem BioAssay AID1671190 (National Center for Advancing Translational Sciences (NCATS), 2021)
The campaign covered roughly 580,000 compounds. About 6,100 (1.1%) were called active. The inconclusive results got no clear call from the source; some entries with a clear call stand among them for comparison. Calls come from the whole dose curve; as a rule, active = well fitted inhibition curve with a large enough effect; inconclusive = small, poorly fitted or top-dose-only effect, or another doubt; inactive = no such curve, though single readings can be large or run the other way. A potency beside an inconclusive call is a rough fit, not a confirmed value.

By UniProt entry, the sequences of proteins in these tests, tags left out. Where a name states a change or a piece, a line headed by the entry shows the natural chain unless it says otherwise.
UniProt P18054: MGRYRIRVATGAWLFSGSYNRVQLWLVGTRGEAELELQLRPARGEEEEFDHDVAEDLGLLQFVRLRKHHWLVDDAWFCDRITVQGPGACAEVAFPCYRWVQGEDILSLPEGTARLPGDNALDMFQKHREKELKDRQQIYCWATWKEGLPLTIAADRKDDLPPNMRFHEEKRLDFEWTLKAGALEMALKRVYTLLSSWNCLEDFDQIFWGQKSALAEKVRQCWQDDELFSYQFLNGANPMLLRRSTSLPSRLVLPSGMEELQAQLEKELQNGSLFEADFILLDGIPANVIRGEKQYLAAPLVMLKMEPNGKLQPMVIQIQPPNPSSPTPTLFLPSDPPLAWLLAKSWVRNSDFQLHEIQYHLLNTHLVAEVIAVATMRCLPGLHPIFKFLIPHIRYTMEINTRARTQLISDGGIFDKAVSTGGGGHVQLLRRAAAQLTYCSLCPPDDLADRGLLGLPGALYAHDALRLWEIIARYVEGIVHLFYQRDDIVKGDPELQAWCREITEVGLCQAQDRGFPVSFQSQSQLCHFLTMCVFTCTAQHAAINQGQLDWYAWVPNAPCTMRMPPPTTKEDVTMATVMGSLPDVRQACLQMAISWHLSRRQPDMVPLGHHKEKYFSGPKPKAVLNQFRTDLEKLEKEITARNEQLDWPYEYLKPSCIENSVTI

Biological target: Polyunsaturated fatty acid lipoxygenase ALOX12 (Homo sapiens) (UniProt P18054)
Experiment: Primary qHTS assay for inhibitors of human arachidonate 12S-lipoxygenase (ALOX12): Round 2
Settings: purified 12hLO, xylenol orange hydroperoxide absorbance; series mostly up to 108 µM
Method in brief: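 Purified human 12hLO (150 nM final) in 25 mM Hepes, 0.01% Triton X-100, pH 7.0 was preincubated 15 min at room temperature with compound. Then 40 uM arachidonic acid was added, 30 min. Hydroperoxide was read by Fe-XO absorbance ratio 573/405 nm.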
Potency is the fitted concentration of half-maximal effect.

SMILES | Potency
CCc1ccc(/C=C(/C#N)C(=O)Nc2ccc(N3CCOCC3)cc2)cc1 | inconclusive: 10 µM [inhibitor, partial curve, poor fit]
Clc1ccccc1N1CCN(Cc2ccc(Br)o2)CC1 | inconclusive: 3.55 µM [inhibitor, full curve, poor fit]
COC(=O)\C(C(C)=O)=C(/C=C/C=C/C=C/N(C)C)N(C)C | inconclusive: 35.5 µM [inhibitor, single point]
COc1ccccc1CNC(=O)c1noc(-c2ccc3c(c2)OCO3)n1 | inconclusive: 79.4 µM [inhibitor, single point]
CCOC(=O)COc1ccc2c(=O)c(Oc3ccccc3OC)coc2c1 | inconclusive: 35.5 µM [inhibitor, partial curve, poor fit]
COc1ccccc1NC(=O)Cc1c(C(=O)O)[nH]c2ccc(Cl)cc12 | inconclusive: 28.2 µM [inhibitor, partial curve, poor fit]
CCCCN1CCN(c2nc3c(c(=O)[nH]c(=O)n3C)n2Cc2cc(C)ccc2C)CC1 | inconclusive: 89.1 µM [inhibitor, single point]
CC1Cc2ccccc2N1S(=O)(=O)c1cccc(Br)c1 (centres undefined) | inactive
COc1cc(Cn2c(=O)sc3ccccc32)ccc1OC(C)C | inactive
O=c1[nH]c(Nc2ccccc2Cl)nc2nccc(-c3ccco3)c12 | inconclusive: 0.562 µM [inhibitor, full curve, poor fit]
O=C1C(Cl)=C(N2CCN(Cc3ccccc3)CC2)C(=O)N1c1ccccc1 | inconclusive: 39.8 µM [inhibitor, partial curve, poor fit]
Cc1cccc(NC(=O)CSc2nc3ccc(NC(=O)c4ccco4)cc3s2)c1 | inconclusive: 2 µM [inhibitor, full curve, poor fit]
Cn1c(-c2ccc3ccccc3n2)[n+](C)c2ccccc21 | inconclusive: 0.794 µM [inhibitor, full curve, poor fit]
Cc1ccc(S(=O)(=O)N2CCN(CC(=O)NCC3(N4CCOCC4)CCCCC3)CC2)cc1 | inconclusive: 10 µM [inhibitor, full curve, poor fit]
COc1ccc(C(=O)N2CCN(c3ccccc3)CC2)cc1S(=O)(=O)N1CCCC1 | inconclusive: 63.1 µM [inhibitor, partial curve, poor fit]
COC(=O)c1ccc(COc2cccc3c2OC(C)(C)C3)cc1 | inconclusive: 126 µM [inhibitor, single point]
Cc1ccc2nc(-c3ccc(O)cc3)c(Nc3ccc4c(c3)OCO4)n2c1 | inconclusive: 44.7 µM [inhibitor, partial curve, poor fit]
Cc1nc(C)c(CCC(=O)Nc2ccccc2F)c(=O)[nH]1 | inactive
Cc1cc(C(=O)CSc2nnc(-c3ccc(Cl)cc3)n2CC2CCCO2)c(C)n1C (centres undefined) | inactive
CC(C)CCNc1nc2ccccc2nc1C(C#N)S(=O)(=O)c1ccc(F)cc1 (centres undefined) | inconclusive: 39.8 µM [inhibitor, partial curve, poor fit]

Exported as a markdown table: entries from further up.

| SMILES | Potency |
| --- | --- |
| COc1ccc(C(=O)N2CCN(c3ccccc3)CC2)cc1S(=O)(=O)N1CCCC1 | inconclusive: 63.1 µM [inhibitor, partial curve, poor fit] |
| COC(=O)c1ccc(COc2cccc3c2OC(C)(C)C3)cc1 | inconclusive: 126 µM [inhibitor, single point] |

More records:

SMILES | Potency
COc1cc(C(=O)COC(=O)CSc2cc(Cl)ccc2Cl)cc(OC)c1OC | inactive
CCCNC(=O)C1CCN(S(=O)(=O)c2ccc3c(c2)CCCN3C(C)=O)CC1 | inconclusive: 89.1 µM [inhibitor, partial curve, poor fit]
COC(CNC(=O)c1ccc(N2CCc3ccccc32)c([N+](=O)[O-])c1)OC | inconclusive: 39.8 µM [inhibitor, single point]
NCC1CCN(C(=O)c2cnc(C34CC5CC(CC(C5)C3)C4)[nH]c2=O)C1 (centres undefined) | inconclusive: 15.8 µM [inhibitor, full curve]
CCN(CC)c1ccc(NC(=O)COC(=O)c2cccs2)cc1 | inconclusive: 89.1 µM [inhibitor, partial curve, poor fit]
CCOC(=O)[C@]12CCC=C1N(Cc1ccccc1)C(=O)[C@H](CC(=O)NCc1ccccc1)C2 | inconclusive: 4.47 µM [inhibitor, full curve, poor fit]
Cc1ccc(CN(C)C(=O)CSc2nc3ccccc3o2)o1 | inactive
O=C(/C=C(/c1ccc(Cl)cc1)n1cncn1)c1ccccc1 | inconclusive: 28.2 µM [inhibitor, full curve, poor fit]
N/C(=N\OC(=O)Cc1cccs1)c1ccccc1 | inconclusive: 79.4 µM [inhibitor, partial curve, poor fit]
CCC1(N2CCN(C(=O)c3ccncc3)CC2)CCN(CCC(C)C)C1 (centres undefined) | inconclusive: 3.16 µM [inhibitor, full curve]
Cc1oc(-c2ccc(Cl)cc2)nc1CS(=O)CC(=O)NCc1ccc(Cl)cc1 (centres undefined) | inconclusive: 126 µM [inhibitor, single point]
COc1ccc(C)cc1NC(=O)CSc1nc2ccccc2nc1N1CCCCC1 | inactive
Cc1ccc(NS(=O)(=O)c2cc(OCC(N)=O)c(C)cc2Cl)cc1C | inconclusive: 39.8 µM [inhibitor, partial curve, poor fit]
C/C(CC(=O)Nc1ccc(Cl)c(Cl)c1)=N\NC(=O)Cc1ccccc1 | inconclusive: 70.8 µM [inhibitor, partial curve, poor fit]
CC(C)C[C@H]1CN([C@@H](Cc2ccc(O)cc2)CN2CCC[C@H]2CN2C(=O)C(=O)NC[C@@H]2Cc2ccccc2)C(=O)C(=O)N1CC1CCCCCC1 | inconclusive: 44.7 µM [inhibitor, partial curve, poor fit]
COC(=O)c1csc(S(=O)(=O)N2CCOCC2)c1OC | inactive
CC(C)Cn1c(SCC(=O)c2ccc(Cl)s2)nnc1-c1ccco1 | inconclusive: 158 µM [inhibitor, single point]
O=C(c1ccco1)[C@@H]1[C@@H]2C(=O)N(c3ccc(Br)cc3)C(=O)[C@@H]2C2c3ccccc3C=CN21 (some centres undefined) | inconclusive: 1.41 µM [inhibitor, full curve, poor fit]
Fc1cc(Cl)ccc1Nc1nc(NCc2ccccc2)nc2ccsc12 | inconclusive: 44.7 µM [inhibitor, partial curve, poor fit]
